Measurements reported in PubChem BioAssay AID602196 (INSERM, 2012)
This is a random part of about 23,000 reagents tested. Over the whole deposit, 455 (2%) were called active. 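Active includes both protection and sensitisation; some change values fall well beyond the stated -50 to +50 range.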 Not all columns of the deposit are shown. Not given: the amount of reagent.

Test: 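Genes whose knock-down alters cisplatin killing of lung cancer cells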
Cell system: human A549 lung cancer cells
Reagent: siRNA pair against human genes
Duration: 48 h transfection before cisplatin; time from cisplatin to read-out not stated
Treatment: cisplatin at a dose killing half of control-siRNA cells; exact dose and duration not given
Read-out: 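Shift in cisplatin death relative to control siRNA, from -50 (all cells die) to +50 (no cells die); siRNAs harmful on their own scored 0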
Reading the numbers: two-siRNA summed score (-2 to +2): higher = both siRNAs protect from cisplatin killing; -2 means both sensitise; mean protection from cisplatin (shift in death): higher = protection from cisplatin killing
Call rule: 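Each siRNA scores 0 if harmful alone by LDH or WST-1, otherwise +1 if it reduces and -1 if it increases cisplatin killing; a gene is active when both siRNAs agree (sum +2 or -2)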
Meaning of the calls: active = both siRNAs shift cisplatin killing the same way; inactive = no consistent shift, or siRNA harmful alone

LOC283129
- two-siRNA summed score (-2 to +2): -1
- mean protection from cisplatin (shift in death) (%): -7.3
- Outcome: inactive

TIMM22
- two-siRNA summed score (-2 to +2): 0
- mean protection from cisplatin (shift in death) (%): 3.1
- Outcome: inactive

MROH5
- two-siRNA summed score (-2 to +2): 0
- mean protection from cisplatin (shift in death) (%): 3.2
- Outcome: inactive

AICDA
- two-siRNA summed score (-2 to +2): 0
- mean protection from cisplatin (shift in death) (%): 4
- Outcome: inactive

LOC440523
- two-siRNA summed score (-2 to +2): 1
- mean protection from cisplatin (shift in death) (%): 17.9
- Outcome: inactive

SLC25A43
- two-siRNA summed score (-2 to +2): -1
- mean protection from cisplatin (shift in death) (%): -10.1
- Outcome: inactive

LOC440843
- two-siRNA summed score (-2 to +2): 0
- mean protection from cisplatin (shift in death) (%): 15.5
- Outcome: inactive

CHRNB4
- two-siRNA summed score (-2 to +2): 0
- mean protection from cisplatin (shift in death) (%): -7.8
- Outcome: inactive

2 consecutive entries already listed, quoted:
TIMM22
- two-siRNA summed score (-2 to +2): 0
- mean protection from cisplatin (shift in death) (%): 3.1
- Outcome: inactive

MROH5
- two-siRNA summed score (-2 to +2): 0
- mean protection from cisplatin (shift in death) (%): 3.2
- Outcome: inactive

The list goes on.
AKR1D1
- two-siRNA summed score (-2 to +2): 0
- mean protection from cisplatin (shift in death) (%): -0.3
- Outcome: inactive

EXOSC3
- two-siRNA summed score (-2 to +2): 1
- mean protection from cisplatin (shift in death) (%): 16
- Outcome: inactive

MNX1
- two-siRNA summed score (-2 to +2): 0
- mean protection from cisplatin (shift in death) (%): -2.5
- Outcome: inactive

LOC130106
- two-siRNA summed score (-2 to +2): 0
- mean protection from cisplatin (shift in death) (%): 11.9
- Outcome: inactive
